This note sets out measurements from paper PMC10128014.

These are yes or no findings as the source states them, for the method shown. Binding seen in cells or lysates may run through a third protein. Some results given as binding are weak or reduced against the parent protein; the word gives no strength. Tags and fused reporters may be left off the sequences shown.

The target of this test is C. albicans Ent2 ENTH domain, wild type, C-terminally tagged with His6-FLAG3 (ENTH^WT-His6-FLAG3) (C. albicans). The experiment in a line: co-IP; lysates of C. albicans ent2Δ/ent2Δ cells grown at 30°C or 39°C; 2 mg total protein with anti-FLAG M2 agarose overnight at 4°C; 200 mM Na-HEPES pH 7.5, 100 mM KCl, 20% glycerol; blots with anti-FLAG (ENTH) and anti-GFP (Rga2).

B1: C. albicans Rga2, N-terminally tagged with GFP (GFP-Rga2) (protein, UniProt Q5AMQ3 1-1176)
chain: MPELVPPTNNRPHIHETPELSSQPSLDSNRQPRELCKKCNQLIVEGHAYELGDDRWHIHCFNCSKCNTSLGCNSNFLVLGNGNLICSNCSYNCKQCGRKIDDLAILTGDQAYCSNCFKCRSCKNKIEDLRYARTSKGLFCMDCHQKLMAKKKKYDAKKKHLALLQEKRVQLEREKDQRELQILEDHKRSVNSSRNSLIQSYMNNQNNQSGESLLYQQNNRSVTSVTSSKNKSLPLPPTSTSPARPTPYSANSYQSKESISGKNKTDTSLGSLSTSQTFSEHTNKGGSTMHSSTGLHNPPIFQSDNDFSIEEVQNSSDSDSNGDEKKSNSTSLRNKSSNRNSRVSPFVNQYSTPPLSSDHLNTDEISADTGERTVYLDVIDTPPESQADPLAGNQLKPALDVSPGRNTEQKSKSFLILSPNQFHDNEFHNTRSPMIDSPGTIISSNSNQNTKAVNLSVEDRPRSACPSPFAKVNRQARVVETNDEISTDGVDEDLAIGTPRQEHSRAGTLKSVSSPPPKVPLPSTPSRGEDISKKFSFVETPKGLGLEGVDYDNHEDQRSYIKSQQDQRQHDISEKTSPSSIMSTPKRVVGNFSPAVTNLEPKNSDLSNDQQHKHSQKNQNVSRTASLIKNLKHKRSTSGNQNKLAALFTTGSKEDHRNGHTRQTSDGSLFSSIANAYISPPITNGALGGRNHIRSTSDSTVLLSDEDHHYSNVAVKNDIEQLNSSKVLLEEDVKKLRDERHKLNEQLKMIQSKISSESIRYDNLVAEISELQIQKTKITNENKDLIEQQKNRQASGATGKLSTSSSNDSDPDASTLGKSVNTHLSPYKSSSDSTSVVSRENFEYSDHLSPDRHQGQFQQHQQYQQQYQQQQPQQQLIEDEQAHKATRLKFWRRPKVGTTQVISSNEYNNNGNGHNNGARIPNSFSTQALRIPAHNSGSSFNNNGANNNNQQNKFSKSKSSNVLDSLLSGDSSQVPLFNSTLQQRAEYEKSQVPIIITRCLAEVEKRGLDFEGIYRISGGNSAIVSIENAFSSLSNDPDEKQLNRVDETLDVDIHAVTSALKRYLRKLPDPVIPFDLYDDFIKVSTKASHSKEVRIAELQKIVNKLPPANRETLRLIVNHLHLVNSLKDINKMGYKNLSVVFAPTLAKDESGVKEMTDMGFRNDTTELLLTESHRIF
Regarding B1, the binding entry is “binds”.
